According to article PMC5902563:

Key:
[1] = target: T1, BD-Tm-2^2 (full-length Tm-2^2 fused to the LexA DNA binding domain) (tomato) (UniProt Q71BG9); test: two-hybrid; LexA-based pairwise test; BD bait and B42 AD prey under a galactose-inducible promoter; growth on Leu- medium and blue colour on X-gal medium with galactose/raffinose (not on glucose), 28°C for 4 days
T1 sequence: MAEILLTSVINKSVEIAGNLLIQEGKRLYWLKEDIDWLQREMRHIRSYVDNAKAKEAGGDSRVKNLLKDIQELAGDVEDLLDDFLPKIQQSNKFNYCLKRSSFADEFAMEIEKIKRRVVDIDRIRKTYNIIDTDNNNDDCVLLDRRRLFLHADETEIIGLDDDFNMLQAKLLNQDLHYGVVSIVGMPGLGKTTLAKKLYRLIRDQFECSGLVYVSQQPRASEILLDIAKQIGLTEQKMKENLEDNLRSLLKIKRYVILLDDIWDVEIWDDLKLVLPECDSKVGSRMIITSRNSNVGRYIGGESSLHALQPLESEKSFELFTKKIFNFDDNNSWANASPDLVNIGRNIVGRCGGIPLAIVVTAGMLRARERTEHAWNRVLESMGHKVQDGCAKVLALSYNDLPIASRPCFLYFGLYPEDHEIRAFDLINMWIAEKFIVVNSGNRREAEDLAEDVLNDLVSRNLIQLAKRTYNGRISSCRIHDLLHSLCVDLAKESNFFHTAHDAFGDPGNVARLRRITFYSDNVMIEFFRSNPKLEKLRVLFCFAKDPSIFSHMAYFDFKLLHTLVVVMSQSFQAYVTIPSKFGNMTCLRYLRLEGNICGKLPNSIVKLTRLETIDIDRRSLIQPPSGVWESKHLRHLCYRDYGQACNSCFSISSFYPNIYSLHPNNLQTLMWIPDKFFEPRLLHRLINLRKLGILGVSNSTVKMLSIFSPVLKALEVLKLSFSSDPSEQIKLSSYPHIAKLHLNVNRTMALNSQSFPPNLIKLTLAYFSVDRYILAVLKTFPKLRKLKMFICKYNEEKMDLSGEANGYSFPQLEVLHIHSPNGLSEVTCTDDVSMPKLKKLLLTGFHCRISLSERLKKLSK

Tm-2^2-nLUC (tomato) = target: T2, Tm-2^2-nLUC (tomato) (UniProt Q71BG9); test: split reporter; firefly luciferase complementation imaging (LCI) in agroinfiltrated N. benthamiana leaves, 48 hpi, 1 mM luciferin, cooled CCD
T2 sequence: T1 sequence

[2] = target: HA-tagged NbHsp90 (3 x HA-NbHsp90) (Nicotiana benthamiana); test: co-IP; HA-NbHsp90 co-expressed with Tm-2^2-myc or cLUC-myc in N. benthamiana leaves, 48 hpi; total protein extracts, anti-HA beads, 4°C for 2 h, four washes; blots with anti-myc and anti-HA

Which binding [1] does the source give for “AD-NbHsp90 (full-length Nicotiana benthamiana Hsp90 fused to the B42 activation domain)” here?
The binding was “binds”.

Which binding (Tm-2^2-nLUC (tomato)) does the source give for cLUC-NbHsp90 (Nicotiana benthamiana) here?
Its binding is “binds”.

B1: myc-tagged Tm-2^2 (Tm-2^2-4 x myc) (protein, UniProt Q71BG9 1-861)
chain: T1 sequence
B1 was tested. Which binding [2] did it give?
Its binding is “binds”.

Results are given in words; binding and its absence hold for the method and conditions named. A result given as binding can be weak or reduced; the word gives no strength. Tags and fused reporters may be left off the sequences shown. For part of these data: Binding seen in cells or lysates may run through a third protein.
